The record followed here is patent publication US11802107B2, “Compounds and methods of use” (Signum Biosciences, Inc., priority 2017, dated 2023).

SMILES strings stand for the structures. Where a name gives a salt, the structure may show the parent alone.

The test system of one test is IL-1b. The test is described as follows: P. acnes-induced IL-1b protein on human PBMCs (ELISA). In kind it is cell-based. Particulars: PBMC, PBMCs + live P. acnes 1:1, test material 30 PM, 24 hours. As to the method: (§1) Cryopreserved human Peripheral Blood Mononuclear cells (PBMCs) from healthy adult donors were obtained from Zen Bio, Inc (Cat No. SER-PBMC-F). Cells were cultured in 12-well plates with lymphocyte media (Cat No. LYMPH-1) and incubated with test materials ([…]) and live P. acnes (ATCC® 6919TM) at 1:1 PBMC: P. acnes bacteria ratio for 24 hours at 37° C. and 5% CO2. After incubation, cell media supernatants were harvested and used to measure pro-inflammatory cytokine levels (IL-8, TNF-α, IL-1b, IL-17) using ELISA kits (BD Biosciences® #557966, #555212, #555244; R&D Systems® #DY317). Total RNA was extracted from cells using the RNAqueous® kit (Ambion®; Cat No. 1912) and cDNA was obtained using the High Capacity RNA-to-cDNA kit (Applied Biosystems®; Cat No. 4387406). Quantitative PCR (qPCR) was performed using the TaqMan® Fast Advanced Master Mix (Applied Biosystems®; Cat No. 4444556) and specific TaqMan®-probes human gene primers CXCL8 (IL-8), IL1B (IL-1b), TNF (TNF-α), IL17A (IL-17A) and GAPDH to calculate the relative gene fold expression change per treatment. Gene expression analysis was performed using the comparative Ct method (also known as the 2-[delta][delta]Ct) approach by comparing the Ct values of P. acnes-only treated cells with the untreated samples and normalized to GAPDH gene expression as endogenous housekeeping gene. […]

Another test relates to IL17A (IL-17A). Kind of test: P. acnes-induced IL-17 gene on human PBMCs (qPCR). The format is cell-based. Particulars: PBMC, PBMCs + live P. acnes 1:1, test material 30 PM, 24 hours. As to the method: as §1
The next test relates to IL-17. Kind of test: P. acnes-induced IL-17 protein on human PBMCs (ELISA). Particulars: PBMC, PBMCs + live P. acnes 1:1, test material 30 PM, 24 hours. The format is cell-based. As to the method: as §1
In another test the test system is IL1B (IL-1b). Kind of test: P. acnes-induced IL-1b gene on human PBMCs (qPCR). The format is cell-based. Conditions: PBMC, PBMCs + live P. acnes 1:1, test material 30 PM, 24 hours. The procedure: as §1
The test system of the next test is IL-8. Kind of test: P. acnes-induced IL-8 protein on human PBMCs (ELISA). In kind it is cell-based. Particulars: PBMCs + live P. acnes 1:1, test material 30 PM, 24 hours. As to the method: as §1
The subject of test [1] is P. acnes (ATCC 6919) biofilms. Kind of test: P. acnes biofilm eradication (MBEC), crystal violet. The format is cell-based, Propionibacterium acnes. Conditions: 24 hours, ≥80% eradication vs vehicle, HCl. As to the method: P. acnes (ATCC® 6919™) was cultured as described above. Bacteria biofilms were established by seeding P. acnes cultures in 96-well plates and incubating for 24 hours without agitation. Later, biofilms were incubated with test materials for 24 hours. Remaining biofilms were washed and stained with crystal violet. […] The absorbance was measured at 595 nm in a microplate reader. […] Results from disk diffusion susceptibility testing (Kirby-Bauer Method) after 72 hours incubation were also obtained.

The next test concerns CXCL8 (IL-8). Kind of test: P. acnes-induced IL-8 gene on human PBMCs (qPCR). The format is cell-based. Conditions: PBMC, PBMCs + live P. acnes 1:1, test material 30 PM, 24 hours. As to the method: as §1
The test system of another test is TNF-α. The test is described as follows: P. acnes-induced TNF-α protein on human PBMCs (ELISA). Conditions: PBMCs + live P. acnes 1:1, test material 30 PM, 24 hours. The format is cell-based. The procedure: as §1
In the next test the test system is TNF (TNF-α). Kind of test: P. acnes-induced TNF-α gene on human PBMCs (qPCR). In kind it is cell-based. Conditions: PBMC, PBMCs + live P. acnes 1:1, test material 30 PM, 24 hours, read-out: TNFa-Gene % inhibition. The procedure: as §1

Turning to `CCC[C@@H]1C[C@@H](C(=O)N[C@@H]([C@H]2O[C@H](SC)[C@H](O)[C@@H](O)[C@H]2O)[C@H](C)Cl)N(C)C1` [Clindamycin HCl, reference compound], the inhibition at 30 pM with IL-1b was 32%; with IL17A (IL-17A), 41%; with IL-17 it was 89%; in the test with IL1B (IL-1b), 3%; in the test on CXCL8 (IL-8), 0%; in the test with TNF (TNF-α) it was 10%. In the test on IL-8, the “IL-8 Protein % inhibition” value is 36%. The MBEC in test [1] was 0.6 μg/mL and (1) μM. The TNFa-Protein % inhibition with TNF-α amounted to 10%.
